# Source: the supplement of paper PMC4604168 (melanoma cell lines)
# This is one part of the list. Repeats are few or missing, and single values can be far off.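 Cells were imaged in 1,536-well plates, and nuclei stained with an antibody against cleaved PARP were counted against all DNA-stained nuclei to give the apoptosis fraction. Screening doses were chosen to leave most cells alive, and resting and induced cleaved-PARP levels differ strongly between cell lines.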
# Tested on: UACC62
# Assay: cleaved PARP positive nuclei fraction relative to DMSO control; melanoma cells; higher = more apoptosis
# Conditions: library dose: low library concentration; 72 h
row,SMILES,cleaved PARP positive nuclei fraction [%]
1,"CC(C)C[C@H](NC(=O)[C@H](Cc1ccccc1)NC(=O)c1cnccn1)B(O)O [Bortezomib] + C[C@@H]1CCN(C(=O)CC#N)C[C@@H]1N(C)c1ncnc2[nH]ccc12 [CP690550] (first compound 0.001 µM, partner dose 1 µM)",18.9
2,"Nc1ccn([C@@H]2O[C@H](CO)[C@@H](O)C2(F)F)c(=O)n1 [gemcitabine] + C=CCn1c(=O)c2cnc(Nc3ccc(N4CCN(C)CC4)cc3)nc2n1-c1cccc(C(C)(C)O)n1 [MK1775] (first compound 0.0004 µM, partner dose 0.02 µM)",207
3,"CNC(=O)c1cc(Oc2ccc(NC(=O)Nc3ccc(Cl)c(C(F)(F)F)c3)cc2)ccn1 [sorafenib] + COc1cc2c(Oc3ccc4[nH]c(C)cc4c3F)ncnc2cc1OCCCN1CCCC1 [cediranib] (first compound 0.4 µM, partner dose 0.4 µM)",70.1
4,"CNC(=O)c1cc(Oc2ccc(NC(=O)Nc3ccc(Cl)c(C(F)(F)F)c3)cc2)ccn1 [sorafenib] + Cc1ccc(NC(=O)c2cccc(N(C)C)c2)cc1NC(=O)c1ccc(O)cc1 [ZM336372] (first compound 0.4 µM, partner dose 2 µM)",23.7
5,"C[C@@H](Oc1cc(-c2cnn(C3CCNCC3)c2)cnc1N)c1c(Cl)ccc(F)c1Cl [Crizotinib] + CCN(CC)CCCCNc1ncc2cc(-c3cc(OC)cc(OC)c3)c(NC(=O)NC(C)(C)C)nc2n1 [PD173074] (first compound 0.2 µM, partner dose 0.1 µM)",93.1
6,"Nc1ncn([C@H]2C[C@H](O)[C@@H](CO)O2)c(=O)n1 [decitabine] + O=c1cc(-c2cccc3c2Sc2ccccc2S3)oc(N2CCOCC2)c1 [KU55933] (first compound 0.1 µM, partner dose 1 µM)",204
7,"O=C(O)c1ccc2c(c1)nc(Nc1cccc(Cl)c1)c1ccncc12 + O=C(O)c1ccc(-c2c[nH]c3ncc(-c4ccccc4)cc23)cc1C1CCCC1 [GSK650394] (first compound 0.4 µM, partner dose 0.16 µM)",30.3
8,"Cc1cc(Nc2cc(N3CCN(C)CC3)nc(/C=C/c3ccccc3)n2)n[nH]1 + C=CCn1c(=O)c2cnc(Nc3ccc(N4CCN(C)CC4)cc3)nc2n1-c1cccc(C(C)(C)O)n1 [MK1775] (first compound 0.04 µM, partner dose 0.02 µM)",333
9,"Nc1ccn([C@@H]2O[C@H](CO)[C@@H](O)C2(F)F)c(=O)n1 [gemcitabine] + O=C(Nc1cccc(Cl)c1)Nc1ncc(CCNc2ncnc3ccsc23)s1 [SNS314] (first compound 0.0004 µM, partner dose 0.0008 µM)",121
10,"C[C@@H](Oc1cc(-c2cnn(C3CCNCC3)c2)cnc1N)c1c(Cl)ccc(F)c1Cl [Crizotinib] + CO[C@@H]1[C@H](N(C)C(=O)c2ccccc2)C[C@H]2O[C@]1(C)n1c3ccccc3c3c4c(c5c6ccccc6n2c5c31)C(=O)NC4 [Midostaurin] (first compound 0.2 µM, partner dose 0.08 µM)",59.9
11,"CC(C)C[C@H](NC(=O)[C@H](Cc1ccccc1)NC(=O)c1cnccn1)B(O)O [Bortezomib] + COc1ccc2c(c1)CCC1C2CCC2(C)C(NCCCCCCN3C(=O)C=CC3=O)CCC12 [U73122] (first compound 0.001 µM, partner dose 0.4 µM)",199
12,"Nc1ccn([C@@H]2O[C@H](CO)[C@@H](O)C2(F)F)c(=O)n1 [gemcitabine] + OCCn1cc(-c2cnc3nnn(Cc4ccc5ncccc5c4)c3n2)cn1 [PF04217903] (first compound 0.0004 µM, partner dose 1 µM)",151
13,"CNC(=O)c1cc(Oc2ccc(NC(=O)Nc3ccc(Cl)c(C(F)(F)F)c3)cc2)ccn1 [sorafenib] + CO[C@@H]1[C@H](N(C)C(=O)c2ccccc2)C[C@H]2O[C@]1(C)n1c3ccccc3c3c4c(c5c6ccccc6n2c5c31)C(=O)NC4 [Midostaurin] (first compound 0.4 µM, partner dose 0.08 µM)",174
14,"O=C(O)[C@@H]1[O][Sb](=[O])([O][Sb]2(=[O])[O][C@H]([C@H](O)CO)[C@H](O)[C@H](C(=O)O)[O]2)[O][C@H]([C@H](O)CO)[C@@H]1O (some centres undefined) [stibogluconate] + Cc1ccc(NC(=O)c2cccc(N(C)C)c2)cc1NC(=O)c1ccc(O)cc1 [ZM336372] (first compound 2 µM, partner dose 2 µM)",107
15,"CN1CCN(c2ccc3nc(-c4c(N)c5c(F)cccc5[nH]c4=O)[nH]c3c2)CC1 [Dovitinib] + COc1cc2c(Oc3ccc4[nH]c(C)cc4c3F)ncnc2cc1OCCCN1CCCC1 [cediranib] (first compound 0.1 µM, partner dose 0.4 µM)",80.9
16,"CC(C)C[C@H](NC(=O)[C@H](Cc1ccccc1)NC(=O)c1cnccn1)B(O)O [Bortezomib] + CC(C)CCN1c2nc(Nc3cc(F)c(O)c(F)c3)ncc2N(C)C(=O)C1C [BID1870] (first compound 0.001 µM, partner dose 0.2 µM)",300
17,"O=C(O)c1ccc2c(c1)nc(Nc1cccc(Cl)c1)c1ccncc12 + NCC(=O)Nc1ccc(-n2nc(C(F)(F)F)cc2-c2ccc3c(ccc4ccccc43)c2)cc1 [OSU03012] (first compound 0.4 µM, partner dose 1 µM)",51.6
18,"Nc1ncn([C@H]2C[C@H](O)[C@@H](CO)O2)c(=O)n1 [decitabine] + Cn1cc(/C=C2\C(=O)Nc3cccnc32)c2ccccc21 [GW441756] (first compound 0.1 µM, partner dose 0.4 µM)",272
19,"CNC(=O)c1cc(Oc2ccc(NC(=O)Nc3ccc(Cl)c(C(F)(F)F)c3)cc2)ccn1 [sorafenib] + Oc1nc(-c2ccc(C(F)(F)F)cc2)nc2c1CSCC2 [XAV939] (first compound 0.4 µM, partner dose 2 µM)",54.3
20,"O=C(O)[C@@H]1[O][Sb](=[O])([O][Sb]2(=[O])[O][C@H]([C@H](O)CO)[C@H](O)[C@H](C(=O)O)[O]2)[O][C@H]([C@H](O)CO)[C@@H]1O (some centres undefined) [stibogluconate] + C=CCn1c(=O)c2cnc(Nc3ccc(N4CCN(C)CC4)cc3)nc2n1-c1cccc(C(C)(C)O)n1 [MK1775] (first compound 2 µM, partner dose 0.02 µM)",230
21,"CC(C)C[C@H](NC(=O)[C@H](Cc1ccccc1)NC(=O)c1cnccn1)B(O)O [Bortezomib] + O=c1cc(-c2cccc3c2Sc2ccccc2S3)oc(N2CCOCC2)c1 [KU55933] (first compound 0.001 µM, partner dose 1 µM)",149
22,"Cn1c(=O)n(-c2ccc(C(C)(C)C#N)cc2)c2c3cc(-c4cnc5ccccc5c4)ccc3ncc21 + OCCn1cc(-c2cnc3nnn(Cc4ccc5ncccc5c4)c3n2)cn1 [PF04217903] (first compound 0.004 µM, partner dose 1 µM)",120
23,"Cn1c(=O)n(-c2ccc(C(C)(C)C#N)cc2)c2c3cc(-c4cnc5ccccc5c4)ccc3ncc21 + c1cc(-c2cnn3cc(-c4ccc(OCCN5CCCCC5)cc4)cnc23)ccn1 [Dorsomorphin] (first compound 0.004 µM, partner dose 0.4 µM)",172
24,"O=C(O)c1ccc2c(c1)nc(Nc1cccc(Cl)c1)c1ccncc12 + COc1ccc(-c2ccc3c(N4CCOCC4)nc(N4C[C@@H](C)O[C@@H](C)C4)nc3n2)cc1CO [KU0063794] (first compound 0.4 µM, partner dose 0.02 µM)",155

# Fetched one by one from the entries so far (two):
row,SMILES,cleaved PARP positive nuclei fraction [%]
1,"CC(C)C[C@H](NC(=O)[C@H](Cc1ccccc1)NC(=O)c1cnccn1)B(O)O [Bortezomib] + C[C@@H]1CCN(C(=O)CC#N)C[C@@H]1N(C)c1ncnc2[nH]ccc12 [CP690550] (first compound 0.001 µM, partner dose 1 µM)",18.9
4,"CNC(=O)c1cc(Oc2ccc(NC(=O)Nc3ccc(Cl)c(C(F)(F)F)c3)cc2)ccn1 [sorafenib] + Cc1ccc(NC(=O)c2cccc(N(C)C)c2)cc1NC(=O)c1ccc(O)cc1 [ZM336372] (first compound 0.4 µM, partner dose 2 µM)",23.7
